The campaign covered roughly 220,000 compounds. About 2,400 (1.1%) were called active. Inconclusive results, whose numbers are uncertain, are shown with a selection of clear calls. Calls follow the shape of the dose curve; as a rule, active = well fitted inhibition curve with a large enough effect; inconclusive = small, poorly fitted or top-dose-only effect, or effect the other way; inactive = no such curve, though single readings can be large or run the other way. Potencies beside an inconclusive call are fits to weak or partial responses and may not hold up.
Experiment: qHTS Multiplex Assay to Identify Dual Action Probes in a Cell Model of Huntington: Aggregate Formation (GFP); also: nearly all actives have a fitted effect of over 60% in size
Settings: PC12 HttQ103-GFP aggregates, Acumen cytometry, 40 h; activity change, negative = inhibition: at 46.1 µM (top of the series) unless noted
Outline: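 Ecdysone-promoter PC12 model expressing HTT exon 1 Q103 fused to GFP, induced by tebufenozide at 100 nM final. Compounds titrated; aggregates sized 1–25 µm scored on a 488 nm laser cytometer.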
% is scaled to controls: 0 for no effect and ±100 for the full control effect; potency is read from the fitted curve at half-maximal effect.

SMILES | Potency | activity change, negative = inhibition
CCCc1nc2c(=O)n(C)c(=O)nc-2n(C)n1 | active: 6.31 µM | 
COc1ccc(NC(=O)CN(Cc2ccccc2)Cc2ccccc2)cc1S(N)(=O)=O | inconclusive: 1.26 µM [inhibitor, single point] | 
O=C(N/N=C/c1ccccc1OC(=O)c1ccc2c(c1)OCO2)c1cccc(F)c1 | active: 2.51 µM | 
COc1ccc(COc2cc(-c3cccc(OC)c3)nc3ccc(NC(=O)c4ccc(Cl)cc4)cc23)cc1 |  | inactive: -25.7%
Cc1ccc(S(=O)(=O)NC2CCOC(C)(C)C2)cc1 (stereo unspecified) | inconclusive: 0.282 µM [activator, full curve, poor fit] | 
O=C(C1CC1)N1CCc2cc(S(=O)(=O)NCC3COc4ccccc4O3)ccc21 (stereo unspecified) | inconclusive: 15.8 µM [inhibitor, single point] | 
Cc1cccc(Nc2ncnc3nc[nH]c23)c1 | active: 12.6 µM | 
CCCn1nc(C(=O)Nc2cccc(C(=O)OC)c2)c2ccccc2c1=O |  | inactive: 24.8%
COc1cccc(-c2csc(N3CCN(C(=O)Nc4ccccc4OC)CC3)n2)c1 | inconclusive: 0.794 µM [inhibitor, partial curve] | 
COc1ccccc1CNC(=O)CSc1ccc(-c2cccs2)nn1 |  | inactive: 7.61%
CC(C)Sc1nc(O)c(Cc2ccccc2)c(=O)[nH]1 | inconclusive: 0.501 µM [activator, full curve, poor fit] | 
COc1cc(C)c(NC(=S)Nc2cccc(Cl)c2C)cc1OC | inconclusive: 0.562 µM [inhibitor, partial curve, poor fit] | 
Cc1ccc2nc(N3CCN(Cc4nnnn4C4CCCC4)CC3)c(C#N)cc2c1 | inconclusive: 35.5 µM [inhibitor, single point] | 
CCCSc1nnc(CSc2nc3ccccc3s2)n1-c1ccccc1 | inconclusive: 11.2 µM [inhibitor, single point] | 
C=CCc1ccc(OCCN2CCc3ccccc3C2)c(OC)c1 | inconclusive: 35.5 µM [inhibitor, single point] | 
COCCSc1nnc(NS(=O)(=O)c2ccccc2)s1 | inconclusive: 5.62 µM [activator, partial curve] | 
CS(=O)(=O)c1ccc2nc(NC(=O)CCC(=O)c3cccs3)sc2c1 | active: 0.794 µM | 
Cc1ccc(Nc2nnc(SCC(=O)c3ccc(Br)s3)s2)c(C)c1 | inconclusive: 35.5 µM [inhibitor, single point] | 
CNc1nc(SC)nc2ccsc12 | inconclusive: 6.31 µM [inhibitor, partial curve] | 
CN(c1ccc(C(=O)N2CCN(Cc3ccc4c(c3)OCO4)CC2)cc1)S(=O)(=O)c1ccccc1 | inconclusive: 11.2 µM [inhibitor, partial curve, poor fit] | 
OCCN1CCN(CC/C=C2/c3ccccc3Sc3ccc(C(F)(F)F)cc32)CC1 | inconclusive: 35.5 µM [inhibitor, single point] | 
CN(C)C(CNC(=O)c1oc2ccccc2c1CSc1ncn[nH]1)c1ccco1 (stereo unspecified) | inconclusive: 3.55 µM [activator, partial curve] | 
O=C1COc2ccc(C(=O)CSc3nnnn3-c3ccccc3)cc2N1 |  | inactive: 4.42%
CN(C)S(=O)(=O)c1ccc(NC(=O)COC(=O)C2CC3CCCC(C2)C3=O)cc1 (stereo unspecified) |  | inactive: -6.62%

SMILES | Potency | activity change, negative = inhibition
COc1ccc(/C=N/NC(=O)CNc2c(Br)cc(C)cc2Br)c(C(=O)O)c1OC |  | inactive: 7.93%
O=C(CSc1n[nH]c(-c2cccs2)n1)N1CCCc2ccccc21 |  | inactive: 1.55%
CC1CCC/C(=C\Nc2ccc(C(=O)O)cc2)C1=O (stereo unspecified) |  | inactive: 26.6%
CN(C)S(=O)(=O)c1ccc(C(=O)Nc2nnc(-c3cccs3)o2)cc1 | inconclusive: 35.5 µM [inhibitor, single point] | 
O=C(Nc1ccc(F)cc1)N1CCC(c2nc3c(nnn3Cc3ccccc3Cl)c(=O)[nH]2)CC1 |  | inactive: -7.41%
C[C@@H](NCCCc1cccc(C(F)(F)F)c1)c1cccc2ccccc12 | inconclusive: 15.8 µM [inhibitor, partial curve, poor fit] | 
CN(Cc1cn[nH]c1-c1ccc(-c2ccccc2)cc1)CC1CCOCC1 | inconclusive: 1.26 µM [inhibitor, single point] | 
CCCCc1ccc(/C=C2\C(=O)c3ccccc3C(O)=C2C(=O)OCC)cc1 |  | inactive: 8.35%
Cc1nnc(SCC(=O)c2cc(C)n(-c3ccc4c(c3)OCO4)c2C)s1 | inconclusive: 11.2 µM [inhibitor, partial curve] | 
CCN(CC)CCn1c(C)nc2ccccc21 |  | inactive: -10.4% [at 9.22 µM]
COc1ccccc1N1CCN(C(=O)CN(c2ccccc2OC)S(=O)(=O)c2ccccc2)CC1 | active: 5.01 µM | 
Cc1ccccc1NC(=S)NNc1ncc(C(F)(F)F)cc1Cl | inconclusive: 10 µM [inhibitor, partial curve] | 
CCCC/C=C/C(NC(=O)CCc1ccccc1)c1ccccc1 (stereo unspecified) |  | inactive: -11.2%
Cc1ccc2c(c1)[nH]c1c(=O)n(CCCN3CCOCC3)cnc12 | inconclusive: 2.51 µM [inhibitor, full curve] | 
c1nnn(C23CC4CC(CC(C4)C2)C3)n1 |  | inactive: 12.3%
O=[N+]([O-])c1ccc(Sc2n[nH]c(-c3ccc(Cl)cc3Cl)n2)nc1 | inconclusive: 0.501 µM [activator, partial curve] | 
O=C(NCc1ccc2c(c1)OCO2)c1ccc(COc2cc(Cl)ccc2Cl)o1 | inconclusive: 35.5 µM [inhibitor, partial curve] | 
COC(=O)c1c(NC(=O)CN2CCN(c3ccccc3Cl)CC2)sc(C)c1C |  | inactive: -13.5%
O=C(NCc1cccnc1)c1ccc(COc2ccc(Cl)cc2)cc1 | inconclusive: 15.8 µM [inhibitor, single point] | 
CCSc1nc2ccccc2n1C(=O)/C=C/c1ccc(OC)c(OC)c1 | inconclusive: 2 µM [activator, partial curve, poor fit] | 
Cc1cccc(-c2nc(NCCCN3CCOCC3)c3ccccc3n2)c1 | inconclusive: 15.8 µM [inhibitor, single point] | 
CCCn1c(Sc2nnnn2-c2ccccc2)n[nH]c1=O |  | inactive: 25.6%
CCOC(=O)c1cc(-c2ccc(N)cc2)sc1N |  | inactive: 21.6%
Cc1ccc(S(=O)(=O)c2ccc(Oc3cccc(C)c3)cc2)cc1 | inconclusive: 10 µM [inhibitor, partial curve] | 

Structural class: the entries above containing a CF3 group.
SMILES | Potency | activity change, negative = inhibition
OCCN1CCN(CC/C=C2/c3ccccc3Sc3ccc(C(F)(F)F)cc32)CC1 | inconclusive: 35.5 µM [inhibitor, single point] | 
C[C@@H](NCCCc1cccc(C(F)(F)F)c1)c1cccc2ccccc12 | inconclusive: 15.8 µM [inhibitor, partial curve, poor fit] | 
Cc1ccccc1NC(=S)NNc1ncc(C(F)(F)F)cc1Cl | inconclusive: 10 µM [inhibitor, partial curve] | 

(list continues)

SMILES | Potency | activity change, negative = inhibition
N#C/C(=C\C=C\c1ccccc1)C(=O)Nc1ccccc1 | inconclusive: 7.94 µM [activator, partial curve] | 
CC(C)c1nnc(SCC(=O)N2CCN(C(=O)c3ccco3)CC2)n1N | inconclusive: 11.2 µM [activator, single point] | 
CC(=O)N1N=C(c2ccc(C)o2)CC1c1ccc(F)cc1 (stereo unspecified) | inconclusive: 2.82 µM [activator, partial curve] | 
N#C/C(=N\Nc1ccccc1F)c1nc(-c2ccccc2)cs1 |  | inactive: 6.49%
O=[N+]([O-])c1cccc(N/N=C/c2cccc3ccccc23)c1 | inconclusive: 14.1 µM [activator, partial curve] | 
CCCCC(NC(=O)c1ccccc1)C(=O)OCC(=O)N1c2ccccc2Sc2ccccc21 (stereo unspecified) |  | inactive: -4.58%
C1=C(c2ccc(-c3ccccc3)cc2)Nc2ncnn2C1c1ccco1 (stereo unspecified) | inconclusive: 35.5 µM [inhibitor, single point] | 
CN(C)c1ccc(C(=O)c2ccc(N(C)C)c3ccccc23)cc1 | inconclusive: 0.1 µM [inhibitor, full curve] | 
CC1=NNC(=O)/C1=C\c1cn(-c2ccccc2)nc1-c1ccc(F)cc1 | inconclusive: 17.8 µM [inhibitor, single point] | 
CC(C)n1c(N2CCN(CC(=O)NCc3cccs3)CC2)nc2ccccc21 | inconclusive: 0.316 µM [inhibitor, full curve, poor fit] | 
N#C/C(=C/c1ccc(-c2ccc(S(N)(=O)=O)cc2)o1)c1nc2ccccc2s1 | inconclusive: 35.5 µM [inhibitor, single point] | 
CCOc1ccc(NC(=O)C/C(N)=N/O)cc1 |  | inactive: -5.16%
CCOC(=O)c1cc2c(ccn2-c2ccc(F)cc2)n1CC(=O)N1CCN(C(=O)c2ccco2)CC1 | inconclusive: 11.2 µM [activator, partial curve] | 
COc1ccc(NC(=O)/C(Cl)=C(/Cl)S(=O)(=O)Cc2ccccc2)cn1 | inconclusive: 3.16 µM [activator, partial curve] | 
CCSc1nnc(NC(=O)CSc2nc3c(c(=O)n2CC)SC(C)C3)s1 (stereo unspecified) | active: 12.6 µM | 
Cc1c(Cl)cccc1NC(=S)Nc1ccc2[nH]c(=O)[nH]c2c1 | inconclusive: 0.794 µM [activator, single point] | 
Cc1cccc(C)c1NC(=O)N1C2CCC1CC(O)(c1cccnc1)C2 (stereo unspecified) | inconclusive: 5.01 µM [activator, single point] | 
Cc1ccc(N2C(=O)NC(NC(=O)C(C)(C)C)(C(F)(F)F)C2=O)cc1 (stereo unspecified) | inconclusive: 35.5 µM [activator, single point] | 
O=C(OC1CCOC1=O)c1ccc(N2CCCC2)c([N+](=O)[O-])c1 (stereo unspecified) |  | inactive: 15.6%
CCn1c(-c2ccc(C)cc2)nn(CC(=O)NCCc2ccccc2)c1=S | inconclusive: 20 µM [inhibitor, single point] | 
O=S(=O)(NC1CC1)c1ccc(S(=O)(=O)N2CCc3ccccc32)cc1 | inconclusive: 10 µM [inhibitor, partial curve] | 
Cc1cc(C)nc(NS(=O)(=O)c2ccc(NC(=O)CSc3nc(-c4ccccc4)c(C#N)c(=O)[nH]3)cc2)n1 |  | inactive: -10.3%
Cc1ccc(S(=O)(=O)N2CCOCC2)cc1C(=O)OCC(=O)N1c2ccccc2NC(=O)C1(C)C | inconclusive: 1 µM [inhibitor, full curve, poor fit] | 
